The assay has as its target CCDC22 (human) (UniProt O60826). Description: affinity purification with mass spectrometry; MAC-tagged bait stably expressed in Flp-In T-REx 293 (tetracycline 24 h); cleared lysate (50 mM HEPES pH 8.0, 150 mM NaCl, 0.5% IGEPAL) on Strep-Tactin beads, eluted with biotin; high-confidence interactions by SAINTexpress (BFDR < 0.05) and CRAPome against MAC-tagged GFP controls.

Protein sequences, listed by entry. Tags and fused reporters are not part of them.
UniProt O60826: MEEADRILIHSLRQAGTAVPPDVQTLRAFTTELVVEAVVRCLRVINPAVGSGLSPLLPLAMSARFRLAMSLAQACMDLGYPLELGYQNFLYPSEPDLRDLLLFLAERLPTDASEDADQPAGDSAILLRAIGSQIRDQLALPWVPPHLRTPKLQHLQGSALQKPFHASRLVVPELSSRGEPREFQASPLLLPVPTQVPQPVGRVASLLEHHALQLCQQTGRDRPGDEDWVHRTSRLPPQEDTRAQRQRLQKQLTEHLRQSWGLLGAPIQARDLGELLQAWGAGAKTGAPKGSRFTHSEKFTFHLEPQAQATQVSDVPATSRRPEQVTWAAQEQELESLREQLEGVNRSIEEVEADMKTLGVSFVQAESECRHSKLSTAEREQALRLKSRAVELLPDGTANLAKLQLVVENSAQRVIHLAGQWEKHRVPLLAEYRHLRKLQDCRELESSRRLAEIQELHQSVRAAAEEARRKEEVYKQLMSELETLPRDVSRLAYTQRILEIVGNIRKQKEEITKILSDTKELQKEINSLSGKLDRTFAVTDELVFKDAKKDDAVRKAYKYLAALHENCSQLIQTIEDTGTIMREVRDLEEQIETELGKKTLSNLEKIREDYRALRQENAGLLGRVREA

These are yes or no findings as the source states them, for the method shown. Binding seen in cells or lysates may run through a third protein. A yes stands for co-enrichment or nearness to the bait. Other partners may have been found.

B1: DZIP1 (protein, UniProt Q86YF9 1-867)
chain: MQAEAADWFSSMPFQKHVYYPLASGPEGPDVAVAAAAAGAASMACAPPSAASGPLPFFQFRPRLESVDWRRLSAIDVDKVAGAVDVLTLQENIMNITFCKLEDEKCPHCQSGVDPVLLKLIRLAQFTIEYLLHSQEFLTSQLHTLEERLRLSHCDGEQSKKLLTKQAGEIKTLKEECKRRKKMISTQQLMIEAKANYYQCHFCDKAFMNQAFLQSHIQRRHTEENSHFEYQKNAQIEKLRSEIVVLKEELQLTRSELEAAHHASAVRFSKEYEMQKTKEEDFLKLFDRWKEEEKEKLVDEMEKVKEMFMKEFKELTSKNSALEYQLSEIQKSNMQIKSNIGTLKDAHEFKEDRSPYPQDFHNVMQLLDSQESKWTARVQAIHQEHKKEKGRLLSHIEKLRTSMIDDLNASNVFYKKRIEELGQRLQEQNELIITQRQQIKDFTCNPLNSISEPKGNPLAWQAFESQPAAPAVPMNAPALHTLETKSSLPMVHEQAFSSHILEPIEELSEEEKGRENEQKLNNNKMHLRKALKSNSSLTKGLRTMVEQNLMEKLETLGINADIRGISSDQLHRVLKSVESERHKQEREIPNFHQIREFLEHQVSCKIEEKALLSSDQCSVSQMDTLSTGEVPKMIQLPSKNRQLIRQKAVSTDRTSVPKIKKNVMEDPFPRKSSTITTPPFSSEEEQEDDDLIRAYASPGPLPVPPPQNKGSFGKNTVKSDADGTEGSEIEDTDDSPKPAGVAVKTPTEKVEKMFPHRKNVNKPVGGTNVPEMFIKKEELQELKCADVEDEDWDISSLEEEISLGKKSGKEQKEPPPAKNEPHFAHVLNAWGAFNPKGPKGEGLQENESSTLKSSLVTVTDWSDTSDV
On to B1, for which the binding entry is “binds”.

B2: VPS33B (protein, UniProt Q9H267 1-617)
chain: MAFPHRPDAPELPDFSMLKRLARDQLIYLLEQLPGKKDLFIEADLMSPLDRIANVSILKQHEVDKLYKVENKPALSSNEQLCFLVRPRIKNMRYIASLVNADKLAGRTRKYKVIFSPQKFYACEMVLEEEGIYGDVSCDEWAFSLLPLDVDLLSMELPEFFRDYFLEGDQRWINTVAQALHLLSTLYGPFPNCYGIGRCAKMAYELWRNLEEEEDGETKGRRPEIGHIFLLDRDVDFVTALCSQVVYEGLVDDTFRIKCGSVDFGPEVTSSDKSLKVLLNAEDKVFNEIRNEHFSNVFGFLSQKARNLQAQYDRRRGMDIKQMKNFVSQELKGLKQEHRLLSLHIGACESIMKKKTKQDFQELIKTEHALLEGFNIRESTSYIEEHIDRQVSPIESLRLMCLLSITENGLIPKDYRSLKTQYLQSYGPEHLLTFSNLRRAGLLTEQAPGDTLTAVESKVSKLVTDKAAGKITDAFSSLAKRSNFRAISKKLNLIPRVDGEYDLKVPRDMAYVFGGAYVPLSCRIIEQVLERRSWQGLDEVVRLLNCSDFAFTDMTKEDKASSESLRLILVVFLGGCTFSEISALRFLGREKGYRFIFLTTAVTNSARLMEAMSEVKA
B2: the binding entry is “binds”.

B3: VPS33A (protein, UniProt Q96AX1 1-596)
chain: MAAHLSYGRVNLNVLREAVRRELREFLDKCAGSKAIVWDEYLTGPFGLIAQYSLLKEHEVEKMFTLKGNRLPAADVKNIIFFVRPRLELMDIIAENVLSEDRRGPTRDFHILFVPRRSLLCEQRLKDLGVLGSFIHREEYSLDLIPFDGDLLSMESEGAFKECYLEGDQTSLYHAAKGLMTLQALYGTIPQIFGKGECARQVANMMIRMKREFTGSQNSIFPVFDNLLLLDRNVDLLTPLATQLTYEGLIDEIYGIQNSYVKLPPEKFAPKKQGDGGKDLPTEAKKLQLNSAEELYAEIRDKNFNAVGSVLSKKAKIISAAFEERHNAKTVGEIKQFVSQLPHMQAARGSLANHTSIAELIKDVTTSEDFFDKLTVEQEFMSGIDTDKVNNYIEDCIAQKHSLIKVLRLVCLQSVCNSGLKQKVLDYYKREILQTYGYEHILTLHNLEKAGLLKPQTGGRNNYPTIRKTLRLWMDDVNEQNPTDISYVYSGYAPLSVRLAQLLSRPGWRSIEEVLRILPGPHFEERQPLPTGLQKKRQPGENRVTLIFFLGGVTFAEIAALRFLSQLEDGGTEYVIATTKLMNGTSWIEALMEKPF
As for B3, the binding result is recorded as “binds”.

B4: OFD1 (protein, UniProt O75665 1-1012)
chain: MMAQSNMFTVADVLSQDELRKKLYQTFKDRGILDTLKTQLRNQLIHELMHPVLSGELQPRSISVEGSSLLIGASNSLVADHLQRCGYEYSLSVFFPESGLAKEKVFTMQDLLQLIKINPTSSLYKSLVSGSDKENQKGFLMHFLKELAEYHQAKESCNMETQTSSTFNRDSLAEKLQLIDDQFADAYPQRIKFESLEIKLNEYKREIEEQLRAEMCQKLKFFKDTEIAKIKMEAKKKYEKELTMFQNDFEKACQAKSEALVLREKSTLERIHKHQEIETKEIYAQRQLLLKDMDLLRGREAELKQRVEAFELNQKLQEEKHKSITEALRRQEQNIKSFEETYDRKLKNELLKYQLELKDDYIIRTNRLIEDERKNKEKAVHLQEELIAINSKKEELNQSVNRVKELELELESVKAQSLAITKQNHMLNEKVKEMSDYSLLKEEKLELLAQNKLLKQQLEESRNENLRLLNRLAQPAPELAVFQKELRKAEKAIVVEHEEFESCRQALHKQLQDEIEHSAQLKAQILGYKASVKSLTTQVADLKLQLKQTQTALENEVYCNPKQSVIDRSVNGLINGNVVPCNGEISGDFLNNPFKQENVLARMVASRITNYPTAWVEGSSPDSDLEFVANTKARVKELQQEAERLEKAFRSYHRRVIKNSAKSPLAAKSPPSLHLLEAFKNITSSSPERHIFGEDRVVSEQPQVGTLEERNDVVEALTGSAASRLRGGTSSRRLSSTPLPKAKRSLESEMYLEGLGRSHIASPSPCPDRMPLPSPTESRHSLSIPPVSSPPEQKVGLYRRQTELQDKSEFSDVDKLAFKDNEEFESSFESAGNMPRQLEMGGLSPAGDMSHVDAAAAAVPLSYQHPSVDQKQIEEQKEEEKIREQQVKERRQREERRQSNLQEVLERERRELEKLYQERKMIEESLKIKIKKELEMENELEMSNQEIKDKSAHSENPLEKYMKIIQQEQDQESADKSSKKMVQEGSLVDTLQSSDKVESLTGFSHEELDDSW
In the case of B4, the binding entry was “binds”.

B5: HAUS4 (protein, UniProt Q9H6D7 1-363)
chain: MASGDFCSPGEGMEILQQVCSKQLPPCNLSKEDLLQNPYFSKLLLNLSQHVDESGLSLTLAKEQAQAWKEVRLHKTTWLRSEILHRVIQELLVDYYVKIQDTNVTSEDKKFHETLEQRLLVTELMRLLGPSQEREIPPLLGLEKADLLELMPLSEDFVWMRARLQQEVEEQLKKKCFTLLCYYDPNSDADSETVKAAKVWKLAEVLVGEQQQCQDAKSQQKEQMLLLEKKSAAYSQVLLRCLTLLQRLLQEHRLKTQSELDRINAQYLEVKCGAMILKLRMEELKILSDTYTVEKVEVHRLIRDRLEGAIHLQEQDMENSRQVLNSYEVLGEEFDRLVKEYTVLKQATENKRWALQEFSKVYR
In the case of B5, the binding entry was “binds”.

B6: VIPAS39 (protein, UniProt Q9H9C1 1-493)
chain: MNRTKGDEEEYWNSSKFKAFTFDDEDDELSQLKESKRAVNSLRDFVDDDDDDDLERVSWSGEPVGSISWSIRETAGNSGSTHEGREQLKSRNSFSSYAQLPKPTSTYSLSSFFRGRTRPGSFQSLSDALSDTPAKSYAPELGRPKGEYRDYSNDWSPSDTVRRLRKGKVCSLERFRSLQDKLQLLEEAVSMHDGNVITAVLIFLKRTLSKEILFRELEVRQVALRHLIHFLKEIGDQKLLLDLFRFLDRTEELALSHYREHLNIQDPDKRKEFLKTCVGLPFSAEDSAHIQDHYTLLERQIIIEANDRHLESAGQTEIFRKHPRKASILNMPLVTTLFYSCFYHYTEAEGTFSSPVNLKKTFKIPDKQYVLTALAARAKLRAWNDVDALFTTKNWLGYTKKRAPIGFHRVVEILHKNNAPVQILQEYVNLVEDVDTKLNLATKFKCHDVVIDTYRDLKDRQQLLAYRSKVDKGSAEEEKIDALLSSSQIRWKN
Consider B6, for which the binding result is listed as “binds”.

B7: NDE1 (protein, UniProt Q9NXR1 1-335)
chain: MEDSGKTFSSEEEEANYWKDLAMTYKQRAENTQEELREFQEGSREYEAELETQLQQIETRNRDLLSENNRLRMELETIKEKFEVQHSEGYRQISALEDDLAQTKAIKDQLQKYIRELEQANDDLERAKRATIMSLEDFEQRLNQAIERNAFLESELDEKENLLESVQRLKDEARDLRQELAVQQKQEKPRTPMPSSVEAERTDTAVQATGSVPSTPIAHRGPSSSLNTPGSFRRGLDDSTGGTPLTPAARISALNIVGDLLRKVGALESKLASCRNLVYDQSPNRTGGPASGRSSKNRDGGERRPSSTSVPLGDKGLDTSCRWLSKSTTRSSSSC
In the case of B7, the binding result is recorded as “binds”.

B8: CAMSAP2 (Calmodulin-regulated spectrin-associated protein 2) (protein, UniProt Q08AD1 1-1489)
chain: MGDAADPREMRKTFIVPAIKPFDHYDFSRAKIACNLAWLVAKAFGTENVPEELQEPFYTDQYDQEHIKPPVVNLLLSAELYCRAGSLILKSDAAKPLLGHDAVIQALAQKGLYVTDQEKLVTERDLHKKPIQMSAHLAMIDTLMMAYTVEMVSIEKVIACAQQYSAFFQATDLPYDIEDAVMYWINKVNEHLKDIMEQEQKLKEHHTVEAPGGQKSPSKWFWKLVPARYRKEQTLLKQLPCIPLVENLLKDGTDGCALAALIHFYCPDVVRLEDICLKETMSLADSLYNLQLIQEFCQEYLNQCCHFTLEDMLYAASSIKSNYLVFMAELFWWFEVVKPSFVQPRVVRPQGAEPVKDMPSIPVLNAAKRNVLDSSSDFPSSGEGATFTQSHHHLPSRYSRPQAHSSASGGIRRSSSMSYVDGFIGTWPKEKRSSVHGVSFDISFDKEDSVQRSTPNRGITRSISNEGLTLNNSHVSKHIRKNLSFKPINGEEEAESIEEELNIDSHSDLKSCVPLNTNELNSNENIHYKLPNGALQNRILLDEFGNQIETPSIEEALQIIHDTEKSPHTPQPDQIANGFFLHSQEMSILNSNIKLNQSSPDNVTDTKGALSPITDNTEVDTGIHVPSEDIPETMDEDSSLRDYTVSLDSDMDDASKFLQDYDIRTGNTREALSPCPSTVSTKSQPGSSASSSSGVKMTSFAEQKFRKLNHTDGKSSGSSSQKTTPEGSELNIPHVVAWAQIPEETGLPQGRDTTQLLASEMVHLRMKLEEKRRAIEAQKKKMEAAFTKQRQKMGRTAFLTVVKKKGDGISPLREEAAGAEDEKVYTDRAKEKESQKTDGQRSKSLADIKESMENPQAKWLKSPTTPIDPEKQWNLASPSEETLNEGEILEYTKSIEKLNSSLHFLQQEMQRLSLQQEMLMQMREQQSWVISPPQPSPQKQIRDFKPSKQAGLSSAIAPFSSDSPRPTHPSPQSSNRKSASFSVKSQRTPRPNELKITPLNRTLTPPRSVDSLPRLRRFSPSQVPIQTRSFVCFGDDGEPQLKESKPKEEVKKEELESKGTLEQRGHNPEEKEIKPFESTVSEVLSLPVTETVCLTPNEDQLNQPTEPPPKPVFPPTAPKNVNLIEVSLSDLKPPEKADVPVEKYDGESDKEQFDDDQKVCCGFFFKDDQKAENDMAMKRAALLEKRLRREKETQLRKQQLEAEMEHKKEETRRKTEEERQKKEDERARREFIRQEYMRRKQLKLMEDMDTVIKPRPQVVKQKKQRPKSIHRDHIESPKTPIKGPPVSSLSLASLNTGDNESVHSGKRTPRSESVEGFLSPSRCGSRNGEKDWENASTTSSVASGTEYTGPKLYKEPSAKSNKHIIQNALAHCCLAGKVNEGQKKKILEEMEKSDANNFLILFRDSGCQFRSLYTYCPETEEINKLTGIGPKSITKKMIEGLYKYNSDRKQFSHIPAKTLSASVDAITIHSHLWQTKRPVTPKKLLPTKA
On to B8, for which the binding entry is “binds”.

Values taken from PMC11189303.
